Values joined by “and” are separate entries in the source; they are usually repeats but may differ in a detail not shown here. Equal values may be shown once.
How the values were obtained:
[1] = system: enzyme of SEQ ID NO:1; assay: Reductive amination on 9 μmol scale, configuration of the amine product (UHPLC-UV-MS, chiral GC-FID); format: biochemical, Mycobacterium smegmatis; details: 30 mM carbonyl-containing compound; 0.5 mg/ml enzyme; 48 h at 30° C.; ammonia as amine source
[2] = system: enzyme of SEQ ID NO:2; assay: as above; format: biochemical, Cystobacter fuscus DSM 2262; details: 30 mM carbonyl-containing compound; 0.5 mg/ml enzyme; 48 h at 30° C.; ammonia as amine source
[3] = system: enzyme of SEQ ID NO:2; assay: Semi-preparative-scale reductive amination (1 mmol) with ammonia as amine source; format: biochemical, Cystobacter fuscus DSM 2262; details: enzyme loading 0.5 mg/mL
[4] = system: enzyme of SEQ ID NO:1; assay: as above; format: biochemical, Mycobacterium smegmatis; details: chiral GC-FID

For `CCCC(C)=O` [pentan-2-one], the “enantiomeric excess of the (S)-amine formed, enzyme of SEQ ID NO:1” value [1] was 98% and > 97%, the “enantiomeric excess of the (S)-amine formed, enzyme of SEQ ID NO:2” value [2] was 98% and > 97% and the “Conversion, SEQ ID NO: 2” value ([3]; 50 mM carbonyl-containing compound, 30° C.) was 57%. For the same molecule, the “TTN (total turnover), SEQ ID NO: 2” value [3] was 3016.

In the case of `C[C@@H]1CCCC[C@@H]1N.Cl` [(1S, 2R)-2-methylcyclohexylamine hydrochloride], the “cis/trans product ratio, SEQ ID NO: 1” value [4] is reported as 90/10 and the “ed of the amine obtained, SEQ ID NO: 1” value [4] is reported as ≥ 99%.
